Data as given in PubChem BioAssay AID1259298 (Sanger Institute, 2017).

- Screen: 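Kinome knock-downs lethal on their own or synergising with anchor drugs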 (primary screen)
- System: HT55 human colorectal cancer cell line
- Reagents: siRNA pool against human genes
- Treatment: anchor drug BYL719 1 µM, cetuximab 5 µg/ml or trametinib 10 nM, or DMSO vehicle alone
- Measured: 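Replicate-averaged viability versus wells of non-targeting pool; knock-down-only robust z-score; per-drug synergy score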
- Reading the numbers: robust z-score, knock-down alone: higher = more cells remaining; low means essential gene; viability vs control pool, no drug: higher = more viable cells; synergy score with BYL719 and synergy score with cetuximab and synergy score with trametinib: higher = stronger synthetic lethality with the drug
- Call rule: 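Essential when the robust z-score for knock-down alone with DMSO is below -3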
- Calls: active = essential (knock-down alone); inactive = no change alone
In all, the deposit lists 794 reagents; shown is an unselected part. In the full data, 20 (2.5%) got an active call. 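Calls rest only on the knock-down-alone score; drug synergy scores played no part in them.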 Viability is capped at 1. The record does not give: the amount of reagent, the time to read-out.

| gene | robust z-score, knock-down alone | viability vs control pool, no drug (fraction) | synergy score with BYL719 | synergy score with cetuximab | synergy score with trametinib | Call |
| --- | --- | --- | --- | --- | --- | --- |
| SRPK1 (GeneID 6732) | 0.58 | 1 | -0.1 | -0.0249 | -0.0336 | inactive |
| FXN (GeneID 2395) | -0.496 | 0.916 | -0.228 | -0.169 | -0.113 | inactive |
| CSNK2B (GeneID 1460) | 0.58 | 1 | -0.206 | -0.211 | 0.054 | inactive |
| SMAD2 (GeneID 4087) | -1.07 | 0.871 | -0.151 | -0.236 | -0.144 | inactive |
| PHKB (GeneID 5257) | 0.58 | 1 | -0.219 | -0.143 | -0.182 | inactive |
| IDH2 (GeneID 3418) | -1.37 | 0.847 | -0.22 | -0.027 | -0.0112 | inactive |
| SCYL1 (GeneID 57410) | 0.58 | 1 | -0.272 | -0.211 | -0.181 | inactive |
| SIK3 (GeneID 23387) | 0.58 | 1 | -0.272 | -0.194 | -0.143 | inactive |
| IGF1R (GeneID 3480) | -1.1 | 0.869 | 0.0503 | -0.119 | 0.0676 | inactive |
| PIP5K1A (GeneID 8394) | -0.501 | 0.915 | -0.00736 | -0.011 | 0.137 | inactive |
| CILK1 (GeneID 22858) | 0.58 | 1 | -0.1 | -0.107 | -0.0103 | inactive |
| MAP3K21 (GeneID 84451) | 0.58 | 1 | -0.14 | -0.173 | -0.0332 | inactive |
| PDK1 (GeneID 5163) | 0.58 | 1 | -0.0479 | -0.127 | 0.0877 | inactive |
| MAP4K3 (GeneID 8491) | 0.315 | 0.979 | -0.0134 | -0.142 | 0.139 | inactive |
| NME4 (GeneID 4833) | 0.58 | 1 | -0.0113 | -0.0653 | 0.086 | inactive |
| JAK1 (GeneID 3716) | 0.371 | 0.984 | -0.281 | 0.00108 | -0.0185 | inactive |
| ALPK2 (GeneID 115701) | 0.14 | 0.966 | -0.296 | -0.0727 | -0.058 | inactive |
| ACVR2B (GeneID 93) | 0.58 | 1 | -0.272 | -0.211 | -0.107 | inactive |
| HASPIN (GeneID 83903) | -1.64 | 0.827 | -0.232 | -0.0218 | 0.0439 | inactive |
| STRADB (GeneID 55437) | 0.58 | 1 | -0.248 | -0.0128 | -0.0194 | inactive |
| ULK4 (GeneID 54986) | -1.36 | 0.849 | -0.288 | -0.123 | -0.00637 | inactive |
| EPHA8 (GeneID 2046) | -1.32 | 0.852 | -0.098 | -0.112 | 0.0415 | inactive |
| PNCK (GeneID 139728) | 0.416 | 0.987 | -0.233 | -0.222 | 0.0568 | inactive |
| MARK2 (GeneID 2011) | 0.561 | 0.999 | -0.198 | -0.213 | -0.112 | inactive |
| PI4K2A (GeneID 55361) | 0.58 | 1 | -0.272 | -0.211 | -0.234 | inactive |
| PTK7 (GeneID 5754) | -2.39 | 0.768 | -0.0523 | 0.0252 | -0.141 | inactive |
| MAP2K7 (GeneID 5609) | -1.04 | 0.874 | -0.0969 | -0.0623 | 0.0472 | inactive |
| EFNA3 (GeneID 1944) | 0.348 | 0.982 | -0.135 | -0.226 | -0.00752 | inactive |
| MAPK10 (GeneID 5602) | 0.58 | 1 | -0.206 | -0.211 | -0.0848 | inactive |
| STK10 (GeneID 6793) | 0.58 | 1 | -0.272 | -0.211 | -0.0723 | inactive |
| TTK (GeneID 7272) | 0.233 | 0.973 | -0.112 | 0.0448 | -0.00529 | inactive |
| BLK (GeneID 640) | 0.58 | 1 | -0.245 | -0.211 | -0.062 | inactive |
| UCK2 (GeneID 7371) | 0.58 | 1 | -0.239 | -0.211 | -0.084 | inactive |
| MAPK3 (GeneID 5595) | 0.0439 | 0.958 | -0.186 | -0.244 | 0.0739 | inactive |
| PRKCE (GeneID 5581) | 0.26 | 0.975 | -0.0467 | -0.177 | -0.0181 | inactive |
| AK3 (GeneID 50808) | 0.58 | 1 | -0.114 | -0.0125 | -0.0788 | inactive |
| MAPK9 (GeneID 5601) | 0.58 | 1 | -0.272 | -0.211 | -0.0974 | inactive |
| WT1 (GeneID 7490) | 0.58 | 1 | -0.193 | -0.211 | -0.194 | inactive |
| CHKB (GeneID 1120) | 0.58 | 1 | -0.143 | -0.211 | 0.00768 | inactive |
| ANKK1 (GeneID 255239) | -0.854 | 0.888 | -0.0917 | 0.0978 | 0.0167 | inactive |
| MARK4 (GeneID 57787) | -0.389 | 0.924 | -0.113 | 0.0151 | 0.102 | inactive |
| TEX14 (GeneID 56155) | 0.58 | 1 | -0.241 | -0.113 | -0.0227 | inactive |
| PIP4K2A (GeneID 5305) | 0.548 | 0.998 | -0.262 | -0.152 | -0.00971 | inactive |
| ZAP70 (GeneID 7535) | -0.311 | 0.93 | -0.318 | -0.053 | 0.0439 | inactive |
| MAPK8 (GeneID 5599) | -0.343 | 0.928 | -0.137 | -0.268 | -0.0688 | inactive |
| CDK2 (GeneID 1017) | 0.58 | 1 | -0.272 | -0.211 | -0.045 | inactive |
| CLK2 (GeneID 1196) | 0.58 | 1 | -0.033 | -0.0622 | -0.0381 | inactive |
| NEK4 (GeneID 6787) | -3.27 | 0.699 | -0.112 | 0.0898 | 0.0846 | active |
| CDK5 (GeneID 1020) | 0.58 | 1 | -0.198 | -0.0272 | 0.0637 | inactive |
| SYK (GeneID 6850) | -1.1 | 0.869 | -0.104 | -0.18 | -0.00131 | inactive |

Not a retest: entries from further up.
| gene | robust z-score, knock-down alone | viability vs control pool, no drug (fraction) | synergy score with BYL719 | synergy score with cetuximab | synergy score with trametinib | Call |
| --- | --- | --- | --- | --- | --- | --- |
| EPHA8 (GeneID 2046) | -1.32 | 0.852 | -0.098 | -0.112 | 0.0415 | inactive |
| PNCK (GeneID 139728) | 0.416 | 0.987 | -0.233 | -0.222 | 0.0568 | inactive |
| MARK2 (GeneID 2011) | 0.561 | 0.999 | -0.198 | -0.213 | -0.112 | inactive |
